The record followed here is article PMC6239283.

Test [1] deals with T1, OsTGA5 (yeast two-hybrid fusion) (rice (Oryza sativa)) (UniProt Q0JNL3).
T1 sequence: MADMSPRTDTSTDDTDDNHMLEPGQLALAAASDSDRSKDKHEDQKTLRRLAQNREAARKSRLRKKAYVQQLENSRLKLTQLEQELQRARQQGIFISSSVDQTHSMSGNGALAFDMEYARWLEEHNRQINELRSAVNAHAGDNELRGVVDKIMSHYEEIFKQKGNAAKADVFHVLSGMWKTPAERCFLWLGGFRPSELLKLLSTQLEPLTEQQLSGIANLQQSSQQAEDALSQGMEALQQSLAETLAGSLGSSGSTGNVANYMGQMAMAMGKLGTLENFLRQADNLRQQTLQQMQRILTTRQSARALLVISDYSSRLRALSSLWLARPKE
In words: two-hybrid; … Y2H system (Clontech); OsTGAs in pGBKT7 (bait), NHs or OsTGAs in pGADT7 (prey); co-transformed into yeast; growth on SD without leucine, tryptophan and histidine with 1 to 10 mM 3-AT; images on the third day.

The target in test [2] is T2, OsTGA3 (yeast two-hybrid fusion) (rice (Oryza sativa)) (UniProt Q6IVC3).
T2 sequence: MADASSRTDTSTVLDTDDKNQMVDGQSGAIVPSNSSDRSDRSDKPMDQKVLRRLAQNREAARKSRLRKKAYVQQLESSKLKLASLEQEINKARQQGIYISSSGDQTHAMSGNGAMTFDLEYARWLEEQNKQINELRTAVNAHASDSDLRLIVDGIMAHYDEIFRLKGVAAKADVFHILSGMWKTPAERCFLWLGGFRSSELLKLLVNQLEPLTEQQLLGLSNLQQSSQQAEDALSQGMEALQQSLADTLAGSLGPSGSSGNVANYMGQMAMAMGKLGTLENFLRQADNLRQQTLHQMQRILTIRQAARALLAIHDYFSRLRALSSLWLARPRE
The test is described as above.

Test [3] deals with T3, OsTGA2 (yeast two-hybrid fusion) (rice (Oryza sativa)) (UniProt Q6IVC2).
T3 sequence: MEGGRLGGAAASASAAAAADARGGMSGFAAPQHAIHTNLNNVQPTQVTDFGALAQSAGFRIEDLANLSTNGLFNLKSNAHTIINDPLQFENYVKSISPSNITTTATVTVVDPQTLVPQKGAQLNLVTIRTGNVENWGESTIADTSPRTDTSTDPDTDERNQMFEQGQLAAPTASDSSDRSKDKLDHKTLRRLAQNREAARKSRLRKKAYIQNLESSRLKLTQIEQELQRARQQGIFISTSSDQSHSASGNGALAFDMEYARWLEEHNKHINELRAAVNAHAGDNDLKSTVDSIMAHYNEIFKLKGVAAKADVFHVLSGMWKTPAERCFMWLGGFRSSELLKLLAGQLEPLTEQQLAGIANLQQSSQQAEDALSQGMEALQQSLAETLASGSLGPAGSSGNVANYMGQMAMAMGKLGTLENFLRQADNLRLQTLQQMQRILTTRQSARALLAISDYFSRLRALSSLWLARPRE
Described as above.

The target of test [4] is T4, OsTGA5 (BiFC split-YFP fusion) (rice (Oryza sativa)) (UniProt Q0JNL3).
T4 sequence: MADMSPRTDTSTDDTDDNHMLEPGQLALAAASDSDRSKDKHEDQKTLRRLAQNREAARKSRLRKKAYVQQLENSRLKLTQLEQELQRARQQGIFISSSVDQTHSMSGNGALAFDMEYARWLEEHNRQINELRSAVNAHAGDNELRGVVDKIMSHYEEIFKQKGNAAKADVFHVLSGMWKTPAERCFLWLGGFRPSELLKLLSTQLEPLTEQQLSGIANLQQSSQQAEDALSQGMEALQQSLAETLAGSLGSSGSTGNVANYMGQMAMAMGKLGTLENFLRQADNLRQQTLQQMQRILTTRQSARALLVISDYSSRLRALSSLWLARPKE
In words: split reporter; BiFC in rice protoplasts transfected using PEG; OsTGAs fused to cYFP (and nYFP for dimer tests), NHs fused to nYFP; reconstituted YFP seen by confocal microscopy.

For test [5], the target named is T5, OsTGA3 (BiFC split-YFP fusion) (rice (Oryza sativa)) (UniProt Q6IVC3).
T5 sequence: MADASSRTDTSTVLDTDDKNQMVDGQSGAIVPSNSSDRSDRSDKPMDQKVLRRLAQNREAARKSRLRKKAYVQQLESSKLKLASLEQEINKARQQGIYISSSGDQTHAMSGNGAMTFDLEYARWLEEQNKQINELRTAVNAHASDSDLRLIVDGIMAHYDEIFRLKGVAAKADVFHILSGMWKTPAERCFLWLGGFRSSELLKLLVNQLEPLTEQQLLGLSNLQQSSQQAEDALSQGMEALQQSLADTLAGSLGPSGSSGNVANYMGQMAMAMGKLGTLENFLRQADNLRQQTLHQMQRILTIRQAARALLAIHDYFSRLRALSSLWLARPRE
The test is described as above.

Results are given in words; binding and its absence hold for the method and conditions named. For some assays here: Binding seen in cells or lysates may run through a third protein. Some binding calls cover weakened binding; strength is not graded here. Where a sequence is shown, tags or fusion partners need not be part of it.

B1: OsNH2, rice NPR1 homolog 2 (yeast two-hybrid fusion) (protein, UniProt Q0JJ01 1-635)
chain: MPARSAVVVIAMEPSSSITIASSSSYLSNGSSPCSVSLAPPGAGAVAAQAAPVAAGEGGGGGGGGGGGGSSSVEVVSLNRLSANLERLLLDSDLDCSDADVDVADGGPPVPVHRCILAARSTFFYNLFAARGRGGDGAAGGGGGGGGGGGERTGGRPRYKMEELVPGGRVGRDAFLSLLGYLYTGKLRPAPDDVVSCADPMCPHDSCPPAIRFNVEQMYAAWAFKITELISLFQRRLLNFVDKTLVEDVLPILQVAFHSELTPVLEKCIRRIARSNLDNVSLDKELPPEVAVQIKEIRQKSQPNEGDTVISDPVHEKRVRRIHRALDSDDVELVKLLLNESEITLDDANALHYAAAYCDSKVVSELLDLRLANLNLKNSRGYTALHLAAMRREPAIIMCLLNKGAAVSQLTADGQSAMSICRRLTRMKDYNTKMEQGQESNKDRLCIDILDREMIRKPMAVEDSVTSPLLADDLHMKLLYLENRVAFARLFFPAEAKVAMQIAQADTTPEFGIVPAASTSGKLKEVDLNETPVTQNKRLRSRVDALMKTVELGRRYFPNCSQVLDKFLEDDLPDSPDALDLQNGTSDEQNVKRMRFCELKEDVRKAFSKDRADNSMFSILSSSSSSSPPPKVAKK
As to B1, the binding entry in test [1], in test [2] and in test [3] was “binds” throughout.

B2: OsTGA5 (yeast two-hybrid fusion) (protein, UniProt Q0JNL3 1-329)
chain: MADMSPRTDTSTDDTDDNHMLEPGQLALAAASDSDRSKDKHEDQKTLRRLAQNREAARKSRLRKKAYVQQLENSRLKLTQLEQELQRARQQGIFISSSVDQTHSMSGNGALAFDMEYARWLEEHNRQINELRSAVNAHAGDNELRGVVDKIMSHYEEIFKQKGNAAKADVFHVLSGMWKTPAERCFLWLGGFRPSELLKLLSTQLEPLTEQQLSGIANLQQSSQQAEDALSQGMEALQQSLAETLAGSLGSSGSTGNVANYMGQMAMAMGKLGTLENFLRQADNLRQQTLQQMQRILTTRQSARALLVISDYSSRLRALSSLWLARPKE
As to B2, the binding entry in test [1] and in test [2] was “binds” each time.

B3: OsTGA5 (BiFC split-YFP fusion) (protein, UniProt Q0JNL3 1-329)
chain: MADMSPRTDTSTDDTDDNHMLEPGQLALAAASDSDRSKDKHEDQKTLRRLAQNREAARKSRLRKKAYVQQLENSRLKLTQLEQELQRARQQGIFISSSVDQTHSMSGNGALAFDMEYARWLEEHNRQINELRSAVNAHAGDNELRGVVDKIMSHYEEIFKQKGNAAKADVFHVLSGMWKTPAERCFLWLGGFRPSELLKLLSTQLEPLTEQQLSGIANLQQSSQQAEDALSQGMEALQQSLAETLAGSLGSSGSTGNVANYMGQMAMAMGKLGTLENFLRQADNLRQQTLQQMQRILTTRQSARALLVISDYSSRLRALSSLWLARPKE
With B3, the binding entry in test [4] and in test [5] was “binds” throughout.

B4: OsTGA3 (yeast two-hybrid fusion) (protein, UniProt Q6IVC3 1-333)
chain: MADASSRTDTSTVLDTDDKNQMVDGQSGAIVPSNSSDRSDRSDKPMDQKVLRRLAQNREAARKSRLRKKAYVQQLESSKLKLASLEQEINKARQQGIYISSSGDQTHAMSGNGAMTFDLEYARWLEEQNKQINELRTAVNAHASDSDLRLIVDGIMAHYDEIFRLKGVAAKADVFHILSGMWKTPAERCFLWLGGFRSSELLKLLVNQLEPLTEQQLLGLSNLQQSSQQAEDALSQGMEALQQSLADTLAGSLGPSGSSGNVANYMGQMAMAMGKLGTLENFLRQADNLRQQTLHQMQRILTIRQAARALLAIHDYFSRLRALSSLWLARPRE
For the molecule B4, in test [2], the binding entry is “binds”.

B5: OsTGA3 (BiFC split-YFP fusion) (protein, UniProt Q6IVC3 1-333)
chain: MADASSRTDTSTVLDTDDKNQMVDGQSGAIVPSNSSDRSDRSDKPMDQKVLRRLAQNREAARKSRLRKKAYVQQLESSKLKLASLEQEINKARQQGIYISSSGDQTHAMSGNGAMTFDLEYARWLEEQNKQINELRTAVNAHASDSDLRLIVDGIMAHYDEIFRLKGVAAKADVFHILSGMWKTPAERCFLWLGGFRSSELLKLLVNQLEPLTEQQLLGLSNLQQSSQQAEDALSQGMEALQQSLADTLAGSLGPSGSSGNVANYMGQMAMAMGKLGTLENFLRQADNLRQQTLHQMQRILTIRQAARALLAIHDYFSRLRALSSLWLARPRE
Take B5: in test [5], the binding entry is listed as “binds”.

B6: OsNH4, rice NPR1 homolog 4 (yeast two-hybrid fusion) (protein, UniProt A2CIR7 1-506)
chain: MEETLKSLSMDYLNLLINGQAFSDVTFSVEGRLVHAHRCILAARSLFFRKFFCGAAADQAAAPPGALLLDHLSPRSPSGGASASSPRGAGGSAAAAAAATPGAVIPVSSVSYEVFLLLLQFLYSGQVSLVPQKGEPRPGCGERGCWHTHCAAAVDLALDTLAAARSFGVEELALLTQKQLAGMVEKASIEDVMKVLMASRKQDLHQLWTTCSHLVAKSGLPPEVLAKHLPIDVVAKIDELRLKSMSRRSPFLSHHHHHPHAAAAGIEASSAAELDDHHKIRRMRRALDSSDVELVKLMVMGEGLNLDDALALHYAVENCSREVVKALLELGAADVNHPAGPAGKTPLHVAAEMVCPDMVAVLLDHHADPNVRTVDGVTPLDILRTLTSDFLFKGAVPGLAHIEPNKLRLCLELVQSAAMVMSREDAQTAAVNAAPIYGESPGGGGGGGVYNASGTSSSMVNLSLDNRMVYLNLGMDAQFGKMNDGGDGDDGGSRGPSSLFSPHGFP
On to B6, for which the binding result in test [1] is reported as “binds”.

B7: OsNH4, rice NPR1 homolog 4 (BiFC nYFP fusion) (protein, UniProt A2CIR7 1-506)
chain: MEETLKSLSMDYLNLLINGQAFSDVTFSVEGRLVHAHRCILAARSLFFRKFFCGAAADQAAAPPGALLLDHLSPRSPSGGASASSPRGAGGSAAAAAAATPGAVIPVSSVSYEVFLLLLQFLYSGQVSLVPQKGEPRPGCGERGCWHTHCAAAVDLALDTLAAARSFGVEELALLTQKQLAGMVEKASIEDVMKVLMASRKQDLHQLWTTCSHLVAKSGLPPEVLAKHLPIDVVAKIDELRLKSMSRRSPFLSHHHHHPHAAAAGIEASSAAELDDHHKIRRMRRALDSSDVELVKLMVMGEGLNLDDALALHYAVENCSREVVKALLELGAADVNHPAGPAGKTPLHVAAEMVCPDMVAVLLDHHADPNVRTVDGVTPLDILRTLTSDFLFKGAVPGLAHIEPNKLRLCLELVQSAAMVMSREDAQTAAVNAAPIYGESPGGGGGGGVYNASGTSSSMVNLSLDNRMVYLNLGMDAQFGKMNDGGDGDDGGSRGPSSLFSPHGFP
Consider B7, for which the binding entry in test [4] and in test [5] was “binds weakly” each time.

B8: OsNH3, rice NPR1 homolog 3 (BiFC nYFP fusion) (protein, UniProt Q75HA6 1-589)
chain: METSTISFSSSSPPSPPPPQPAPGDIDAVSLGRLSRNLENLLDPAFLNCADAEIVLASGGGDPGGGAVVGVHRCILAARSRFFYDHFSSAPAPAPATAGDKPQLDLDGLVPGGRHIGRDALVAVLSYLYTGRLRSAPPEAAACLDDGCSHDACRPAIDFVVESTYAASGFQISELVSLFQRRLSDFVNKALAEDILPILVVASTCHLPELLNQCIQRVANSNLDNRYLEKRLPDDLYAKLKEFRVPDEPHSGILDPEHEKRVRNIHKALDSDDVDLVGMLLKESPVTLDDAFAIHYAAAYCEPKVLAELLKLESANVNLKNSSGYTPLHMACMRREPDIIVSLIEKGASVLERTQDGRDALTICKRLTREKDRNEKSEKCKERSKAYLCIGVLQQEIKRRPQILEDQMSAEESIATPLLVDNFHMRLLNLENRVAFARIFFPSEAKLVMRIAQADSTQEFAGLTSANFSKLKEVDLNETPTMQNRRLRERLDALTKTVELGRRYFPHCSEVLDKFLNEESTDLILLESGTAEDQQTKRMRFSELREDVRKAFTKDKAAGAAISSSTSASSSPRYETKLRPGNKKGKLSR
Regarding B8, the binding result in test [4] and in test [5] was “binds” in each case.
